This is one part of the list. Some of these compounds have results that are not shown, active ones among them.

Among the data in PubChem BioAssay AID2205 (University of Pittsburgh Molecular Library Screening Center, 2009) are % Hoechst-high responders and toxicity values, retold here.

A short description of this test: tubulin staining increase by stabilizing compounds – imaging, high-content imaging, primary screen (AID 2205).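 As to toxicity: 0% = mean cell density of plate MIN control wells and 100% = no cells.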 The settings on record: HeLa tubulin immunostaining HCS, 24 h, at 10 µM; % Hoechst-high responders: measured here: nuclear condensation Hoechst responders, stronger effect = higher value, share of cells brighter than vehicle mean+2SD; toxicity: measured here: cytotoxicity by cell density.
As to `COc1cccc(C(=O)NCC2(N3CCCCC3)CCCCC2)c1`, the % Hoechst-high responders was 2.4% and the toxicity came to 4.53%.

In turn, `CN(C)c1cccc(C(=O)NCC2(N(C)C)CCCCC2)c1` registered a % Hoechst-high responders of 1.6% and a toxicity of 7.03%.

Consider `O=C(OC1CN2CCC1CC2)C(CO)(c1ccccc1)c1ccccc1` (stereo not drawn), for which the % Hoechst-high responders was found to be 2.07% and the toxicity worked out at 12.7%.

With `CC(C)N1C(=O)CC2(CCN(CCOC(=O)C(O)(c3ccccc3)c3ccccc3)CC2)C1=O`, the % Hoechst-high responders worked out at 1.9% and the toxicity turned out to be 1.73%.

The molecule `O=C(NCC1(N2CCCCC2)CCCCC1)c1cc([N+](=O)[O-])ccc1Cl` had a % Hoechst-high responders of 2.48% and a toxicity of 6.02%.

Consider `C=CCN1CCN(CCOC(=O)C(O)(c2ccccc2)c2ccccc2)CC1`, for which the % Hoechst-high responders worked out at 1.68% and the toxicity worked out at 1.32%.

For `CCN1CCCC(OC(=O)C2(O)c3ccccc3C=Cc3ccccc32)C1` (stereo not drawn), the % Hoechst-high responders came out at 2.86% and the toxicity stood at 11.2%.

Molecule `CN(C)C1CCCC1OC(=O)C(O)(c1ccccc1)c1ccccc1` (stereo not drawn) showed a % Hoechst-high responders of 1.92% and a toxicity of 5.47%.

For the molecule `Cc1ccccc1C(=O)NCC1(N2CCCCC2)CCCCC1`, the % Hoechst-high responders was found to be 1.61% and the toxicity turned out to be 6.85%.
